Source: the supplement of paper PMC3334620
Over roughly 33,000 sequences, “E-score (-0.5 to 0.5)” has its median near -0.016; the highest 2% begin near 0.3. The list shows a part of the results.

biological target: T1, Yer184c (UniProt P39961); assay: PBM E-score (8-mer binding enrichment) (E-score (-0.5 to 0.5)); higher = stronger / more preferred TF binding; conditions: protein concentration: 100 nM; construct: GST-full length
T1 sequence: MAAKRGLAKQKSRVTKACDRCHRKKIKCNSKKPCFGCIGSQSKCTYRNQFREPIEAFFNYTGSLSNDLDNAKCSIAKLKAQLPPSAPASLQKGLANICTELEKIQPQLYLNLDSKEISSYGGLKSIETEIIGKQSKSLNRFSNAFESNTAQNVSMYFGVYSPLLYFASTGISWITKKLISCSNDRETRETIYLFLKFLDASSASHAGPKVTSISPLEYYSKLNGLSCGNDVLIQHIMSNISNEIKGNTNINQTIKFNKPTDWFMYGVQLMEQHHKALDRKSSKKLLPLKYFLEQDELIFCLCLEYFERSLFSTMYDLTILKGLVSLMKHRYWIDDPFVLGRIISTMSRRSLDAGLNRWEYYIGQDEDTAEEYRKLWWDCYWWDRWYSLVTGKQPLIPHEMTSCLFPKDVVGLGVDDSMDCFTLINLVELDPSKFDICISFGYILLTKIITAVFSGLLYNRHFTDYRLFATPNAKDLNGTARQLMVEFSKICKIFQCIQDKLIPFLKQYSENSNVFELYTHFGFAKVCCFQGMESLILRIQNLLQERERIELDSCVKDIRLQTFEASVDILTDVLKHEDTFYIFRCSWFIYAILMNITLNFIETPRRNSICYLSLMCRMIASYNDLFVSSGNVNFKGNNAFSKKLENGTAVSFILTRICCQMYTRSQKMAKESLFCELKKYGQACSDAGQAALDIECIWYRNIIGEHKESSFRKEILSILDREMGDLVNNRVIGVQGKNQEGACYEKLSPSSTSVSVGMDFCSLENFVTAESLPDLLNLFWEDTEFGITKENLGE
Method in brief: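 Masliner-normalised scans of fluorescent anti-GST signal were the basis for scoring. That signal came from GST-tagged yeast transcription factors applied at about 100-200 nM to double-stranded universal all-10-mer Agilent arrays on fresh or once-stripped slides. Each ungapped eight-base word, pooled with its reverse complement, received an E-score from the Universal PBM Analysis Suite.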

Sequence	PBM E-score
CGCTCCGC	0.142
CCAGCACA	-0.0868
TAGGCTAA	-0.101
GTAGTGAA	0.0671
GAGCGCAA	-0.176
TCGTATCA	-0.00746
GCGGGTTA	0.00078
CGAGTCAC	-0.0328
CCGCGAGA	-0.206
AAATTATC	0.295
CGTTTGAC	0.0214
GACGTAAC	0.00204
AGATTGAC	-0.152
GTGTAGGA	-0.118
ACAGGCGC	-0.188
AGCAGAAG	-0.117
GAAGGATA	-0.0217
ATATTTTG	0.218
ACTGTGTA	0.0718
AGTTACTC	0.135
ACGCTATA	-0.163
ATATATAA	0.339
AAATTGAC	0.125
CCTTTTAG	-0.187
CCCGTATA	0.0422

Sequence	PBM E-score
ATGTCTCA	-0.0797
TTCCCGAA	0.277
TCCTACGA	-0.233
AAGCTCTC	-0.0437
AGTGGGGA	-0.285
CCGAATAG	0.253
CATCAGTC	-0.142
ACCTAGGC	-0.219
ACGCAGTG	-0.188
ACCCCAAC	-0.131
ACGTGGAT	-0.229
ATGCGAGC	-0.0578
ACTCTGCT	-0.0803
CCACACTC	-0.0922
ACACTTTC	-0.021
GCACGTAC	-0.233
ATACAAAA	0.221
CTCTAAGC	0.0215
GCTGTGTA	-0.0706
ACAAAGAC	0.155
CATAGGGA	-0.19
CCCCCTCA	-0.44
ACAATATA	0.286
CTATGCAA	-0.157
CTCCAGTA	-0.0781

Sequence	PBM E-score
CGCTCCTC	-0.221
TAACCAGA	0.0462
ACTGCCAT	0.0176
ACGGTACC	0.118
ATGTACAA	0.126
ACATTATC	0.175
CTAGGCAG	-0.0512
AATTCCTA	0.00772
CCACAACA	-0.182
GAGTCACA	-0.0909
ACATGGAA	0.00985
ACACCGGT	0.126
CGACCAGC	-0.0372
CGTTCCGA	0.236
AGTCATAC	-0.163
ACCCTACG	-0.235
ACCGGGAT	0.256
GCACATCC	0.0126
GTCGCAAA	0.0655
ATCCTCTC	-0.0553
GGGAGGCA	-0.241
ACAAAGAT	0.196
AGGCTGTA	-0.0449
CGTACCCC	0.00233
CCATGTCC	-0.1

Shown with each value named: entries from further up
CCACAACA
  PBM E-score: -0.182
GAGTCACA
  PBM E-score: -0.0909
ACATGGAA
  PBM E-score: 0.00985

Next results

Sequence	PBM E-score
CTGGGTCC	-0.18
AATGTCGT	0.0182
GGCCGCAA	0.0291
CGAACGTA	-0.0861
ACGGACCC	0.0704
ACGTAAAT	0.0506
AGAGACAC	-0.119
GCGAACCC	-0.0496
AGAAAACT	0.0223
CGTTAGAA	0.082
ACTTCCTA	-0.0232
ACACTAAA	0.162
AGCGCGTC	-0.166
GCAGCACC	-0.129
AATGACTC	-0.206
CGGGTGCA	0.0336
GTAACTAA	0.128
CCCCTGCA	-0.285
GACATCAC	-0.0307
CAGTGGGC	-0.171
CAATGGCC	-0.242
ATACATTC	-0.152
CTAGGCAA	-0.0736
AATGACAG	-0.0175
GACTTGCC	-0.199

Sequence	PBM E-score
ACAAGAGA	0.0222
CTCTGTCC	-0.0481
CATCACGA	-0.0921
CATATTGA	-0.0921
AGCCCGGA	0.314
CATTGGAG	-0.0285
CAAACGCA	-0.156
CGGTGCTA	0.0883
CATCTAAC	-0.0721
CAACCCTG	-0.192
ACCTACGT	-0.206
GGGACTTA	-0.159
CTACGAAG	-0.135
ATCGCACA	-0.178
CATGCACA	-0.0401
GCGCATGA	-0.206
AACGTGGG	-0.276
AGCATCCG	0.0773
ATGCTCTG	-0.178
CCTCTCGA	-0.29
CAATGTTC	-0.0589
GGATTGTA	0.0746
ACGGCGCC	0.122
ATATAGGC	0.103
ACCGAAAA	0.349

Sequence	PBM E-score
CAACAAGC	0.0462
AACCTTAA	0.145
GGGGCTAA	-0.195
GGGTGCTA	-0.161
TGATTTAA	0.259
AAAGTCTC	-0.115
GCAATTGC	0.189
ACAGCGAG	0.0226
CCACGTGA	-0.0803
GAGACGTA	0.0588
TCTGAGCA	-0.0905
ACCCTATC	-0.143
ATTTGGAG	-0.028
CCTGTATA	-0.164
ACATTAAA	0.0822
CCTATTTC	0.0737
CGTACTCC	0.0471
ACCGATCG	0.128
AGTCATAT	0.053
CGACAGGA	0.21
AAGCTTAG	0.0825
ACACTACC	-0.134
AGTGCTAA	0.0252
TACCTCCA	-0.249
GTCAGCCA	-0.204

Sequence	PBM E-score
AGGGATTG	-0.119
GCGCGGTA	0.144
GACTACCA	-0.183
CCGGGTAA	0.348
GAGGCTGC	-0.192
CGAGCCCC	-0.186
CGATACCA	-0.0309
AACCGTGC	0.147
ACATTCTA	0.0333
CCAATAGA	-0.0582
CTGACTAA	0.0484
CGGTAGCC	0.0955
GGGTATAA	-0.0177
CTGTATCA	-0.111
GAAGAATC	0.0959
CACTCTGA	-0.268
CAGTTCGA	-0.13
ATTGTTGG	0.174
AGTGGGAA	0.0728
CATCTGGA	0.012
CCGGCGTA	0.313
CCTTCGAG	-0.192

Part of the list above, as labelled records.
CATAGGGA
  PBM E-score = -0.19
AATGACTC
  PBM E-score = -0.206
CAACCCTG
  PBM E-score = -0.192
TCTGAGCA
  PBM E-score = -0.0905
